The record followed here is paper PMC7015432.

Protein sequences, listed by entry. Tags and fused reporters are not part of them. Lines headed by an entry give the natural chain unless they say otherwise; changes in a name come on top.
UniProt Q9ULP9: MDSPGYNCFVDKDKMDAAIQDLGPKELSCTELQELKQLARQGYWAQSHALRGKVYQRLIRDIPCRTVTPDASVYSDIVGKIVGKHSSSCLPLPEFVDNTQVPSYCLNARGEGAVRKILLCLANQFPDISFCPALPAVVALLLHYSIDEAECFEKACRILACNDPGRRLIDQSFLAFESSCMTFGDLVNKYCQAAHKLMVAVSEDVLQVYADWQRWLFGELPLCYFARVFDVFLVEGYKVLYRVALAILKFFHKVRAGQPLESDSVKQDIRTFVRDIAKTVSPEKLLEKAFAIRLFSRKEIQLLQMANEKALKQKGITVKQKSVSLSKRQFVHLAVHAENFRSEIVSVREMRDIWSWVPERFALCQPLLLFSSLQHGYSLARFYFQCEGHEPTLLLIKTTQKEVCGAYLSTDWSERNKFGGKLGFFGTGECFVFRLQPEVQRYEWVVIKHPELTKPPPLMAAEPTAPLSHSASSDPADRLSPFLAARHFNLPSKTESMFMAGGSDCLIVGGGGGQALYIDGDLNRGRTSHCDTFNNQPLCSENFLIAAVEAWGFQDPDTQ
UniProt P62330: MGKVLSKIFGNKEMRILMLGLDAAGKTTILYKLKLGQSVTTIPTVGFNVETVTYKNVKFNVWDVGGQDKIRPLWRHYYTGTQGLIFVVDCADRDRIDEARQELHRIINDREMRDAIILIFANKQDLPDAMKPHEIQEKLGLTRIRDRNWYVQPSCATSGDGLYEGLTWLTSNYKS
UniProt Q15286: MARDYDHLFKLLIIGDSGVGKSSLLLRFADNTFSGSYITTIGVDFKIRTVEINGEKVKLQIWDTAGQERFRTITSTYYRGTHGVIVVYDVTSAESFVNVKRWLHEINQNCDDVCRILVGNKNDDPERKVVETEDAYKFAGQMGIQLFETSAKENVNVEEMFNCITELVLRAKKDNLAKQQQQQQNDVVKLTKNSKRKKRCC

No constants are given. Whether binding was seen depends on the method and setting. In cells and extracts the contact can be indirect. Binding calls can cover weak binding; strength is not graded here.

This experiment has as its target FLAG-tagged wild-type TBC1D24 (human) (UniProt Q9ULP9). Description: co-IP; HEK293T cells co-transfected, lysed 36 hr later in 50 mM Tris pH 7.5, 150 mM NaCl, 0.1% SDS, 1% Nonidet P40; 1 mg lysate with ANTI-FLAG M2 Affinity Gel at 4 °C for 2 hr; FLAG-TBC1D24 is the bait.
With “HA-tagged ARF6 Q67L (from UniProt P62330 1-175)”, the binding entry is recorded as “binds”.
On to “HA-tagged ARF6 T27N (from UniProt P62330 1-175)”, for which the binding entry is reported as “binds”.
Regarding “HA-tagged wild-type ARF6 (from UniProt P62330 1-175)”, the binding entry is given as “binds”.
With “Myc-tagged Rab35 Q67L (from UniProt Q15286 1-201)”, the binding result is “no binding”.
Under “Myc-tagged Rab35 S22N (from UniProt Q15286 1-201)” stands “no binding”; under “Myc-tagged wild-type Rab35 (from UniProt Q15286 1-201)”, “no binding”.
